The values that follow come from the supplement of paper PMC10338343.

± gives the standard deviation. The list shows a part of the results, in another mix than the full data. The uncertainty is large for many entries.

Test [1] concerns MIWI (PIWIL1) piRISC loaded with piRNA #1 (30 nt). As to the kind of experiment: pre-steady-state target cleavage rate (min^-1); higher = faster piRNA-guided slicing of the target. Conditions: guide: piRNA #1 5'p-UGAGGUAGUAGGUUGUAUAGUAUCCAGAGG; auxiliary factor: 500 nM mouse GTSF1. Summed up: (§1)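 For Cleave-'n-Seq, a transcribed, DNA-blocked target RNA library […] met 1 nM active affinity-purified piRISC with one synthetic guide at 33 °C for 0–8 or 0–960 min in HEPES–potassium acetate buffer, with or without 500 nM GTSF1 partner protein. Uncleaved targets were sequenced and normalised to depth and weakly complementary targets, with three trials pooled and k3 capped at 0.0001 min^-1. A burst-and-steady-state fit supplied the pre-steady-state cleavage rate.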

The test system of test [2] is EfPiwi piRISC loaded with piRNA #1 (26 nt). As to the kind of experiment: pre-steady-state target cleavage rate (min^-1); guide: piRNA #1 5'p-UGAGGUAGUAGGUUGUAUAGUAUCCA; MIWI and MILI are mouse PIWI proteins and EfPiwi is from a freshwater sponge; tags in brackets are library labels; higher = faster piRNA-guided slicing of the target. The note with it: auxiliary factor: 500 nM Ephydatia muelleri Gtsf1. Summed up: as §1

Take GGAGACCUUACAAUACAAGCUACUACCUCA: the results for the “pre-steady-state target cleavage rate” value in test [1] and in test [2] were 0.258 ± 0.035 and 0.000496 ± 0.0037, respectively.
GGAGAGGAUACAAUACAACCUACUACCUCA: the “pre-steady-state target cleavage rate” value was determined as 1.18 ± 0.063 in test [1] and 0.0112 ± 0.005 in test [2].
For GGAGACCAAACUAUACAUCCUACUACCUCA, in that order: 0.513 ± 0.06 and 0.0348 ± 0.013.
Regarding GGAGACCUAUGAUUACAACCUACGACCUCA, the “pre-steady-state target cleavage rate” value in test [1] turned out to be 0.000517 ± 0.0089; in test [2] it was 0.00103 ± 0.0078.
Turning to GGAGACCUAUGAAAACAACCUACUACCUCA, the results for the “pre-steady-state target cleavage rate” value in test [1] and in test [2] were 0.00128 ± 0.0073 and 0.00243 ± 0.0032, respectively.
For GGAGACCUAACUAUACAACCUACAUGCUCA, in that order: 0.000808 ± 0.011 and 0.000186 ± 0.017.
For GGAGACCUAUGAUAACAACCUAUCUACCUCA, in that order: 0.00048 ± 0.0073 and 0.000713 ± 0.0096.
Consider GGAGACCUAUGUAAACAACCUUCUACCUCA, for which the entries for the “pre-steady-state target cleavage rate” value in test [1] and in test [2] were 0.00209 ± 0.0036 and 0.000268 ± 0.01, respectively.
In the same order, the values of GGAGACCUAUGUUUAGAACCUACUACCUCA are 0.000195 ± 0.014 and 0.00077 ± 0.0086.
For GGAGACCUAUCUAAACUACCUACUACCUCA, in that order: 0.000884 ± 0.0048 and 0.000977 ± 0.0056.
In the same order, the values of GGAGACCUAUGAAUACAACCAUCUACCUCA are 0.00081 ± 0.0052 and 0.000602 ± 0.0095.
With GGAGACCUAUGAAUACAACCUACUAUCCUCA, the figures for the “pre-steady-state target cleavage rate” value in test [1] and in test [2] were 0.002 ± 0.0027 and 0.000332 ± 0.015, respectively.
Regarding GGAGACCUAUGAUAUGUUGCUACUUGGUCA, the “pre-steady-state target cleavage rate” value stood at 0.000121 ± 0.043 in test [1] and 0.000792 ± 0.0059 in test [2].
As to GGAGACCUAUGAUAUCAACGCUACUACCUCA, the “pre-steady-state target cleavage rate” value stood at 0.000107 ± 0.021 in test [1] and 0.00103 ± 0.0072 in test [2].
In the same order, the values of GGAGACCUAUGAUUACAACCUUCUACCUCA are 0.00128 ± 0.0027 and 0.00125 ± 0.0046.
As for GGAGACCUAUGUAUACAACCUAUCUACCUCA, the “pre-steady-state target cleavage rate” value is 0.00105 ± 0.006 in test [1] and 0.000241 ± 0.014 in test [2].
GGAGACCUAUCUAUACAACCUACUACACUCA: the entries for the “pre-steady-state target cleavage rate” value in test [1] and in test [2] were 0.634 ± 0.061 and 0.00409 ± 0.0046, respectively.
For GGAGACCUAUGAUAAGCAACCUACUACCUCA, in that order: 0.00106 ± 0.0057 and 0.00111 ± 0.0071.
In the same order, the values of GGAGACCUAUGAUAUGUUCCGUACUACCUCA are 0.00084 ± 0.0059 and 0.000711 ± 0.0081.
For GGAGACCUAUGAUAAACAACCUACUACCUCA, in that order: 0.00237 ± 0.005 and 0.00281 ± 0.0041.
As to GGAGACCUAUGAUAACAACACUACUACCUCA, the figures for the “pre-steady-state target cleavage rate” value in test [1] and in test [2] were 0.000464 ± 0.017 and 0.00034 ± 0.013, respectively.
Take GGAGACCUAUGAUUACAACCUACUGCCUCA: the “pre-steady-state target cleavage rate” value came to 0.000222 ± 0.0086 in test [1] and 0.00279 ± 0.0039 in test [2].
For the sequence GGAGACCUAUGAAUACAACCUACUACCUCCA, the figures for the “pre-steady-state target cleavage rate” value in test [1] and in test [2] were 0.00185 ± 0.004 and 0.00197 ± 0.0038, respectively.
For GGAGACCAUACUAUACAACCUUGAACCUCA, in that order: 0.000226 ± 0.018 and 0.000135 ± 0.02.
In the same order, the values of GGAGACCUAUGAAUCACAACCUACUACCUCA are 0.00228 ± 0.0035 and 0.00389 ± 0.0034.
In the same order, the values of GGAGACCUAUGAUUACAUCCUACUACCUCA are 0.00137 ± 0.0038 and 0.00134 ± 0.0035.
Consider GGAGUUGAUACUAUACAACCUACUACCUCA, for which the “pre-steady-state target cleavage rate” value is 1.97 ± 0.13 in test [1] and 0.193 ± 0.06 in test [2].
In the same order, the values of GGAGACCUAUGAUUACAUGCUACUACCUCA are 0.00177 ± 0.0051 and 0.00285 ± 0.0042.
On to GGAGACCUAUGAAUACAACCUACUACCGCA, for which the “pre-steady-state target cleavage rate” value worked out at 0.00152 ± 0.0038 in test [1] and 0.000685 ± 0.0068 in test [2].
In the same order, the values of GGAGACCUAACUUUUCAACCUACUACCUCA are 0.00417 ± 0.0048 and 0.00135 ± 0.0078.
With GGAGACGAUAGUAUACUACCUACUACCUCA, the “pre-steady-state target cleavage rate” value was found to be 0.67 ± 0.071 in test [1] and 0.00258 ± 0.0031 in test [2].
Consider GGAGACCUAUGAUAUGUACCAUCUACCUCA, for which the “pre-steady-state target cleavage rate” value came to 0.000265 ± 0.012 in test [1] and 0.000137 ± 0.018 in test [2].
Consider GGAGACCUAUGUAAACAACCUACUACCUCA, for which the “pre-steady-state target cleavage rate” value stood at 0.00247 ± 0.0033 in test [1] and 0.00236 ± 0.0042 in test [2].
Consider GGAGACCUAUGAUAACAACCUACCUACCUCA, for which the figures for the “pre-steady-state target cleavage rate” value in test [1] and in test [2] were 0.00149 ± 0.0034 and 0.000188 ± 0.02, respectively.
Consider GGAGACCUAUGAUUACAACCUACUACCUACA, for which the entries for the “pre-steady-state target cleavage rate” value in test [1] and in test [2] were 0.000824 ± 0.01 and 0.000799 ± 0.011, respectively.
On to GGAGACCUAACAAUACAACCUACUUCCUCA, for which the “pre-steady-state target cleavage rate” value in test [1] came out at 0.00245 ± 0.0054; in test [2] it was 0.00155 ± 0.0042.
For GGAGACCUAUGAUUACAACCUACUAGCCUCA, in that order: 0.000807 ± 0.0045 and 0.0011 ± 0.007.
With GGAGACCUUUGAAUACAACCUACUACCUCA, the “pre-steady-state target cleavage rate” value worked out at 0.00143 ± 0.0062 in test [1] and 0.00525 ± 0.0038 in test [2].
Turning to GGAGACCUAUGAUUACAACCUACUACCUCCA, the “pre-steady-state target cleavage rate” value in test [1] came out at 0.00128 ± 0.0035; in test [2], 0.00152 ± 0.0054.
As for GGAGACCUAUGAAAACAUCCUACUACCUCA, the results for the “pre-steady-state target cleavage rate” value in test [1] and in test [2] were 0.000623 ± 0.0073 and 0.00025 ± 0.0083, respectively.
With GGAGACCUAUGAUUACAAGCUAGUACCUCA, the “pre-steady-state target cleavage rate” value in test [1] is 0.00212 ± 0.0034; in test [2], 0.000692 ± 0.0041.
For GGAGACCUAUGAUAACAACCUACUAGCCUCA, in that order: 0.000949 ± 0.0058 and 0.000709 ± 0.01.
In the case of GGAGACCUAUGAUAUGUUGCUGACUACCUCA, the entries for the “pre-steady-state target cleavage rate” value in test [1] and in test [2] were 0.000197 ± 0.015 and 0.00057 ± 0.0065, respectively.
Regarding GGAGACCUAUGAUAUGUUCGCUACUACCUCA, the figures for the “pre-steady-state target cleavage rate” value in test [1] and in test [2] were 0.00052 ± 0.0061 and 0.000459 ± 0.0051, respectively.
GGAGACCAUACUAUUCUACCUACUACCUCA: the entries for the “pre-steady-state target cleavage rate” value in test [1] and in test [2] were 0.224 ± 0.035 and 0.000958 ± 0.0064, respectively.
In the same order, the values of GGAGACCUAUGUAUACAACCUAGCUACCUCA are 0.00184 ± 0.0035 and 0.000716 ± 0.0084.
GGAGUGGAUACUAAACAACCUACUUCCUCA: the “pre-steady-state target cleavage rate” value was determined as 0.0286 ± 0.0079 in test [1] and 0.00165 ± 0.002 in test [2].
As to GGAGACCUAUCAAAACAACCUACUACCUCA, the “pre-steady-state target cleavage rate” value in test [1] is 0.00233 ± 0.0046; in test [2], 0.00188 ± 0.0062.
For GGAGACCUAUGAUAUGUUGCUUCUACGUCA, the “pre-steady-state target cleavage rate” value in test [1] amounted to 0.000532 ± 0.0088; in test [2] it was 0.000601 ± 0.0078.
For GGAGACGAUACUAUACAACCUACUACCUUA, in that order: 1.35 ± 0.09 and 0.224 ± 0.068.
In the same order, the values of GGAGACCUAACUCAUACAACCUACUACCUCA are 0.00566 ± 0.0062 and 0.0159 ± 0.0089.
Take GGAGACCUAUGUAUACAACCUAACUACCUCA: the results for the “pre-steady-state target cleavage rate” value in test [1] and in test [2] were 0.00213 ± 0.0037 and 0.000568 ± 0.011, respectively.
In the same order, the values of “GGAGACCUAUGAAUACAACCUACUACCUCC [g2:g18:cont:t1C]” are 0.00183 ± 0.0028 and 0.00214 ± 0.0041.
For GGAGACCUAUGUAAACAUCCUACUACCUCA, in that order: 0.000818 ± 0.0045 and 0.000687 ± 0.0072.
In the same order, the values of GGAGACCUAUGAAUACAACCUACUACCACA are 0.000978 ± 0.0053 and 0.00105 ± 0.0086.
As for GGAGACCUAUGAUAUCAAGCUACUACCUGA, the “pre-steady-state target cleavage rate” value amounted to 0.000948 ± 0.0063 in test [1] and 0.0014 ± 0.0045 in test [2].
In the same order, the values of GGAGACCUAUGUAAACAAGCUACUACCUCA are 0.00165 ± 0.004 and 0.000471 ± 0.0073.
In the same order, the values of GGAGACCUAUGAAUACAACGUACUACCACA are 0.000224 ± 0.013 and 0.000112 ± 0.036.
For GGAGACCUAUGAAUACAAGGUACUACCUCA, in that order: 0.000201 ± 0.013 and 0.0013 ± 0.0074.
Take GGAGACCUAACAAUACUACCUACUACCUCA: the “pre-steady-state target cleavage rate” value amounted to 0.000699 ± 0.012 in test [1] and 0.00212 ± 0.0042 in test [2].
